In this assay the test system is BDF1 mice, B16 melanoma ip, median survival T/C. Kind of assay: NCI In Vivo Anticancer Drug Screen. Data for tumor model B16 Melanoma (intraperitoneal) in B6D2F1 (BDF1) mice. To be noted: T/C endpoint: median survival time, higher T/C = longer survival. The method in brief:
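Each result divides a survival or tumor-size measurement in the compound-treated group by the same measurement in the vehicle group.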

[1] abbreviates: dose: 200.0 mg/kg/injection, schedule: Q01DX009 (ip), vehicle: saline.
[2] abbreviates: dose: 400.0 mg/kg/injection, schedule: Q01DX009 (ip), vehicle: saline.
The mark [3] stands for this setting: dose: 400.0 mg/kg/injection, schedule: Q01DX009 (ip), vehicle: Klucel (hydroxypropylcellulose) (HPC).
[4] abbreviates: dose: 12.5 mg/kg/injection, schedule: Q01DX009 (ip), vehicle: saline with Tween-80.
[5] abbreviates: dose: 25.0 mg/kg/injection, schedule: Q01DX009 (ip), vehicle: saline with Tween-80.
[6] abbreviates: dose: 50.0 mg/kg/injection, schedule: Q01DX009 (ip), vehicle: Klucel (hydroxypropylcellulose) (HPC).
Setting [7] is: dose: 100.0 mg/kg/injection, schedule: Q01DX009 (ip), vehicle: saline.
Setting [8] is: dose: 200.0 mg/kg/injection, schedule: Q01DX009 (ip), vehicle: saline with Tween-80.
Where [9] appears, read: dose: 400.0 mg/kg/injection, schedule: Q01DX009 (ip), vehicle: saline with Tween-80.
Setting [10] is: dose: 100.0 mg/kg/injection, schedule: Q01DX009 (ip), vehicle: Klucel (hydroxypropylcellulose) (HPC).
Setting [11] is: dose: 200.0 mg/kg/injection, schedule: Q01DX009 (ip), vehicle: Klucel (hydroxypropylcellulose) (HPC).
Setting [12] is: dose: 50.0 mg/kg/injection, schedule: Q04DX003 (ip), vehicle: Klucel (hydroxypropylcellulose) (HPC).

The list shows only some results of the screen, not a fair sample: it gathers tests that were run many times, whatever their T/C, doses with no T/C, and many T/C values between a quarter and a half above the control. Further doses and runs are listed elsewhere. T/C is the treated group as % of the vehicle group. Some doses have a count of surviving animals in place of a T/C: the source files T/C as zero there, which appears to mark a toxic dose or a test without result, not a measured value. Some doses without a T/C left all or most animals alive at the check, yet need not have been tolerated: survival well below the control is almost never listed, so the zero probably covers shortened survival too. Counts of survivors are from the toxicity check (mostly the fifth day) where no day follows; animals may have died later. Schedules are NCI's codes, taken here to give the interval after Q, in days (D) or hours (H), and the number of doses after X. Some entries hold several experiments; the results are listed from low to high. For survival time, this PubChem deposit counts one and a half times the control or more as active, and values a quarter to a half above the control carry no call in these data; other NCI protocols may use other cut-offs. Some T/C values are followed by the survivors on the day toxicity was checked, most often the fifth; where none is given, no animal had died by that day. Brackets with × stand for listed records that agree.

For `COC(OC(CO)C(O)S(=O)(=O)O)C(O)S(=O)(=O)O` (stereo unspecified), under setting [1], the T/C is 131 % of control. Besides, the survivor count under setting [2] is 10 of 10.
In the case of `COc1c([N+](=O)[O-])cc(C(=O)O)cc1[N+](=O)[O-]`, the survivor count under setting [3] is reported as 1 of 10.
Take `Cc1cc(C)[c]([Hg][Cl])c(C)c1`: the survivor count under setting [4] was 8 of 10 and the survivor count under setting [5] is 0 of 10.
In the case of `O=NNc1ccc(Cl)cn1`, the T/C was 132 % of control (dose: 6.0 mg/kg/injection, schedule: Q01DX009 (ip), vehicle: water) and 148 % of control [9 of 10 alive] (dose: 12.0 mg/kg/injection, schedule: Q01DX009 (ip), vehicle: water).
On to `O=C(Nc1ccc(F)cc1)Nc1cccc2ccccc12`, for which the survivor count under setting [3] was 6 of 6.
For the molecule `O=[N+]([O-])c1ccc(C(O)C=C(C(F)(F)F)C(F)(F)F)cc1` (stereo unspecified), the survivor count under setting [6] is listed as 8 of 10.
Consider `CN(N=O)C(=O)N[C@@H](C=O)[C@@H](O)[C@H](O)[C@H](O)CO`, for which the T/C (dose: 12.5 mg/kg/injection, schedule: Q01DX009 (ip), vehicle: saline) is 100, 105, 107, 108, 111 (2×), 129 % of control; the T/C (dose: 25.0 mg/kg/injection, schedule: Q01DX009 (ip), vehicle: saline sonified) was 129 % of control; the T/C (dose: 25.0 mg/kg/injection, schedule: Q01DX009 (ip), vehicle: saline) is 95, 107, 113, 121, 123, 130, 142 % of control; the T/C (dose: 33.3 mg/kg/injection, schedule: Q01DX009 (ip), vehicle: other) was 127 % of control; the T/C (dose: 50.0 mg/kg/injection, schedule: Q01DX009 (ip), vehicle: other) is 131 (2×), 134, 135 % of control [9 of 10 alive]; the T/C (dose: 50.0 mg/kg/injection, schedule: Q01DX009 (ip), vehicle: saline sonified) was 129 % of control. Further, the T/C by setting is: (dose: 50.0 mg/kg/injection, schedule: Q01DX009 (ip), vehicle: saline) 100 [9 of 10 alive], 115, 123, 124, 127, 138, 143 % of control; (dose: 75.0 mg/kg/injection, schedule: Q04DX003 (ip), vehicle: saline) 126 % of control; under setting [7], 107, 115, 117, 129, 181 % of control; (dose: 150.0 mg/kg/injection, schedule: Q04DX003 (ip), vehicle: saline) 138 % of control [8 of 9 alive]. Further, the survivor count by setting is: (dose: 75.0 mg/kg/injection, schedule: Q01DX009 (ip), vehicle: other) 10 of 10; (dose: 100.0 mg/kg/injection, schedule: Q01DX009 (ip), vehicle: citric acid) 10 of 10; (dose: 100.0 mg/kg/injection, schedule: Q01DX009 (ip), vehicle: other) 9 of 10 and 10 of 10; (dose: 100.0 mg/kg/injection, schedule: Q01DX009 (ip), vehicle: saline sonified) 6 of 6; under setting [7], 10 of 10 and 6 of 6; (dose: 200.0 mg/kg/injection, schedule: Q01DX009 (ip), vehicle: citric acid) 6 of 10. Moreover, the survivor count reads like this: (dose: 200.0 mg/kg/injection, schedule: Q01DX009 (ip), vehicle: other) 2 of 10 and 3 of 10; (dose: 200.0 mg/kg/injection, schedule: Q01DX009 (ip), vehicle: saline sonified) 1 of 6; under setting [1], 4 of 10, 8 of 10, 9 of 10, 10 of 10; (dose: 400.0 mg/kg/injection, schedule: Q01DX009 (ip), vehicle: citric acid) 0 of 10.
In the case of `C1OCN2CSCC12` (stereo unspecified), the T/C is 126 % of control under setting [8] and 135 % of control [8 of 10 alive] under setting [9].
For the molecule `Nc1nc(-c2ccccc2N=NN2CCCC2)nc2ccccc12`, the survivor count under setting [10] was 8 of 10.
With `CC(N)Cc1ccccc1` (stereo unspecified), the survivor count by setting is: under setting [1], 0 of 10; under setting [2], 0 of 10.
In the case of `CC(Cc1ccccc1)NC(=O)CCNNC(=O)c1ccncc1` (stereo unspecified), the survivor count is, setting by setting: (dose: 25.0 mg/kg/injection, schedule: Q01DX009 (ip), vehicle: Klucel (hydroxypropylcellulose) (HPC)) 10 of 10; under setting [6], 6 of 10; under setting [10], 9 of 10; under setting [11], 6 of 10.
On to `CCCC1CC[N-]CC1.CCCC1CC[N-]CC1.[Cl][Pt+2][Cl]`, for which the survivor count is, setting by setting: (dose: 100.0 mg/kg/injection, schedule: Q01DX009 (ip), vehicle: saline with Tween-80) 1 of 6; under setting [8], 1 of 6; under setting [9], 0 of 6.
As for `CN(C)NCCC#N`, the T/C (dose: 150.0 mg/kg/injection, schedule: Q01DX009 (ip), vehicle: saline) was 145 % of control. The survivor count was 10 of 10 (dose: 169.0 mg/kg/injection, schedule: Q01DX009 (ip), vehicle: saline); 8 of 10 (dose: 300.0 mg/kg/injection, schedule: Q01DX009 (ip), vehicle: saline); 0 of 10 (dose: 600.0 mg/kg/injection, schedule: Q01DX009 (ip), vehicle: saline).
`ClC1=C(Cl)C2(Cl)C(COc3ccc(Cl)cc3)CC1(Cl)C2(Cl)Cl` (stereo unspecified): the survivor count by setting is: (dose: 75.0 mg/kg/injection, schedule: Q01DX009 (ip), vehicle: saline with Tween-80) 9 of 10; (dose: 150.0 mg/kg/injection, schedule: Q01DX009 (ip), vehicle: saline with Tween-80) 10 of 10; (dose: 300.0 mg/kg/injection, schedule: Q01DX009 (ip), vehicle: saline with Tween-80) 0 of 10.
With `C(=N\Nc1nn[nH]n1)/c1ccncc1`, the survivor count under setting [3] is listed as 7 of 10.
Regarding `C[C@@H]1C[C@H]2[C@@H]3CCC4=CC(=O)C=C[C@]4(C)[C@@]3(F)[C@@H](O)C[C@]2(C)[C@@]1(O)C(=O)CO`, the survivor count under setting [10] is reported as 10 of 10.
Regarding `CC(C)(C)C1CCCCC1`, the survivor count runs as follows: under setting [11], 10 of 10; under setting [3], 9 of 10.
`CCOC(=O)C(C(=O)OCC)=C(C)C`: the T/C under setting [2] is 125 % of control.
As to `Brc1cc(Br)cc(-c2nnc(-c3cccc4ccccc34)o2)c1`, the survivor count is on record as 10 of 10 under setting [10] and 9 of 10 under setting [3].
Take `COC(=O)/C=C/NC(=O)c1ccccc1C(=O)OC`: the survivor count under setting [12] is listed as 10 of 10, the survivor count under setting [10] was 9 of 10 and the survivor count under setting [3] is reported as 9 of 10.
As for `O=C1OC(=O)C2C3C=CC(C3=C(c3ccccc3)c3ccccc3)C12` (stereo unspecified), the survivor count runs as follows: (dose: 6.25 mg/kg/injection, schedule: Q04DX003 (ip), vehicle: carboxymethylcellulose (CMC)) 10 of 10; (dose: 12.5 mg/kg/injection, schedule: Q04DX003 (ip), vehicle: carboxymethylcellulose (CMC)) 9 of 10; (dose: 25.0 mg/kg/injection, schedule: Q04DX003 (ip), vehicle: carboxymethylcellulose (CMC)) 10 of 10; under setting [12], 10 of 10; (dose: 100.0 mg/kg/injection, schedule: Q04DX003 (ip), vehicle: Klucel (hydroxypropylcellulose) (HPC)) 10 of 10; (dose: 200.0 mg/kg/injection, schedule: Q04DX003 (ip), vehicle: Klucel (hydroxypropylcellulose) (HPC)) 7 of 10.
As to `Cc1ccc(Cl)cc1NC(=O)Nc1ccccc1Cl`, the survivor count reads like this: (dose: 6.25 mg/kg/injection, schedule: Q01DX009 (ip), vehicle: saline with Tween-80) 10 of 10; under setting [4], 10 of 10; under setting [5], 10 of 10; under setting [6], 10 of 10; under setting [10], 7 of 10 and 10 of 10; under setting [11], 6 of 10. For the same molecule, the survivor count under setting [3] was 7 of 10.

For the origin of these results see PubChem BioAssay AID192 (DTP/NCI, 2004).
